For five molecules, binding results are on record in PMC10521137.

Amino acid sequences for entries named in this document (tags omitted).
UniProt P22216: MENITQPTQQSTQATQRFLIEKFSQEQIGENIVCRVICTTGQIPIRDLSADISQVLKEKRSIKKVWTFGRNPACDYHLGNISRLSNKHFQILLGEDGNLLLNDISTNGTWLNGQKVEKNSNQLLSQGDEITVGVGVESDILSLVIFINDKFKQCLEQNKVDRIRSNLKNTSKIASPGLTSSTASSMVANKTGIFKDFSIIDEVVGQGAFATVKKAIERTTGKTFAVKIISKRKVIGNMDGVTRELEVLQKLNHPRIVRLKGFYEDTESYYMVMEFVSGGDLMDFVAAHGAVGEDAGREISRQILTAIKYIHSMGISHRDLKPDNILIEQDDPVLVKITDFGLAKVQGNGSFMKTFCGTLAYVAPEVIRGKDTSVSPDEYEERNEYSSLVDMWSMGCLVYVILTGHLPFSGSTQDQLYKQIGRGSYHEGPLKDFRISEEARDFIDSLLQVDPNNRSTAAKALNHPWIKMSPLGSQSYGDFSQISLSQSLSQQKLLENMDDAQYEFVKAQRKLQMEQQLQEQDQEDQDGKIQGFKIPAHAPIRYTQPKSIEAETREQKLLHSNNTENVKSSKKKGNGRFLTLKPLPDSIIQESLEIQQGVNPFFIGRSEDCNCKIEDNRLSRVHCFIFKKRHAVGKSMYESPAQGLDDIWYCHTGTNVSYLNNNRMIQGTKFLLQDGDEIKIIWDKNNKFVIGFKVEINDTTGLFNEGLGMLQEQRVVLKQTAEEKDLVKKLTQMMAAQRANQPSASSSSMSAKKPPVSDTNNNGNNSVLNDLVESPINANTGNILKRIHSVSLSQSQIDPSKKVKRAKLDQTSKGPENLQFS
UniProt P47035: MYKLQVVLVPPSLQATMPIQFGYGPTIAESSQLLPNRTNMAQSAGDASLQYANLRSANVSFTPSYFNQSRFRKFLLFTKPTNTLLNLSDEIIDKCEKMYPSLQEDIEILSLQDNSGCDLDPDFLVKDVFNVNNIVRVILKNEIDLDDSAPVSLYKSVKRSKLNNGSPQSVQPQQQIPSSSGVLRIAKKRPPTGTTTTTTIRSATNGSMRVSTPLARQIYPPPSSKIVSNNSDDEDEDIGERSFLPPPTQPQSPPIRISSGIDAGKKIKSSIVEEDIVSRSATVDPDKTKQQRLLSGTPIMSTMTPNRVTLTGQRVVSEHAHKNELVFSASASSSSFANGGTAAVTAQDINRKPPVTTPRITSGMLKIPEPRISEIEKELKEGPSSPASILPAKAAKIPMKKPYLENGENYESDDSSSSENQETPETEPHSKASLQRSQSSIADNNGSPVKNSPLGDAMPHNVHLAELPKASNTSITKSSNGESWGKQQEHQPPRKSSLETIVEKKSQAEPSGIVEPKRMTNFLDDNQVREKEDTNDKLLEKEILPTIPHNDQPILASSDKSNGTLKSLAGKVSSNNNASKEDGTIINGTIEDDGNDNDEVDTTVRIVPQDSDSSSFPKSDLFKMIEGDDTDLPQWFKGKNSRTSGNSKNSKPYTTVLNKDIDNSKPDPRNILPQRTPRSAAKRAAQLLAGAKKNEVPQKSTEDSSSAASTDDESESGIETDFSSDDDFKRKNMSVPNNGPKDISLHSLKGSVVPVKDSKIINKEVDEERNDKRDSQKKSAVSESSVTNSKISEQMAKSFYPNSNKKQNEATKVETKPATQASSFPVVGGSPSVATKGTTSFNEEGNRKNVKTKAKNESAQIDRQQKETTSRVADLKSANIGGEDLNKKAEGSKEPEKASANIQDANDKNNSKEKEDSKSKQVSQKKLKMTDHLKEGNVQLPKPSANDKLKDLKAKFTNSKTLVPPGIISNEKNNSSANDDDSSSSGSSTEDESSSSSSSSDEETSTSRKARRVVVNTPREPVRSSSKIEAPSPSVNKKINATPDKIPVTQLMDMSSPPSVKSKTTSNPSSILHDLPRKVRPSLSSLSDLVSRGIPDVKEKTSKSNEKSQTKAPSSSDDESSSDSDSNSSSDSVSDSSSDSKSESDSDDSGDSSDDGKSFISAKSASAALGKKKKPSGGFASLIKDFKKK

Experiment [1] addresses Rad53-TurboID (542) (S. cerevisiae) (UniProt P22216). As to the kind of experiment: proximity labelling; TurboID biotinylation in living yeast, with and without 200 mM HU, rad53-TurboID against untagged RAD53; streptavidin purification from whole cell extracts and from chromatin-enriched lysates; mass spectrometry with label-free quantification.
Experiment [2] shares this target. As to the kind of experiment: proximity labelling; TurboID biotinylation in living yeast released from G1 into a normal S-phase (no HU); denatured lysate, biotinylated proteins purified on streptavidin magnetic beads, western blot of the bound fraction. In general terms: A western blot detects proteins with antibodies after separation by electrophoresis.
The target is the same in experiment [3]. As to the kind of experiment: proximity labelling; TurboID biotinylation in living yeast released from G1 into S-phase with 200 mM HU; denatured lysate, biotinylated proteins purified on streptavidin magnetic beads, western blot of the bound fraction.

Results are given in words; binding and its absence hold for the method and conditions named. In cells and extracts the contact can be indirect. These calls come from enrichment with a bait or labelling near it, and not all partners need be listed. For some of these results: No binding means not detected with the bait.

For the molecule Net1 (from UniProt P47035 1-1189), the binding result in experiment [1] is listed as “binds”. Take actin (from UniProt P60010 1-375): the binding entry in experiment [2] is on record as “no binding”.

B1: Pol1, the DNA polymerase subunit of Pol α (protein, UniProt P13382 1-1468)
chain: MSSKSEKLEKLRKLQAARNGTSIDDYEGDESDGDRIYDEIDEKEYRARKRQELLHDDFVVDDDGVGYVDRGVEEDWREVDNSSSDEDTGNLASKDSKRKKNIKREKDHQITDMLRTQHSKSTLLAHAKKSQKKSIPIDNFDDILGEFESGEVEKPNILLPSKLRENLNSSPTSEFKSSIKRVNGNDESSHDAGISKKVKIDPDSSTDKYLEIESSPLKLQSRKLRYANDVQDLLDDVENSPVVATKRQNVLQDTLLANPPSAQSLADEEDDEDSDEDIILKRRTMRSVTTTRRVNIDSRSNPSTSPFVTAPGTPIGIKGLTPSKSLQSNTDVATLAVNVKKEDVVDPETDTFQMFWLDYCEVNNTLILFGKVKLKDDNCVSAMVQINGLCRELFFLPREGKTPTDIHEEIIPLLMDKYGLDNIRAKPQKMKYSFELPDIPSESDYLKVLLPYQTPKSSRDTIPSDLSSDTFYHVFGGNSNIFESFVIQNRIMGPCWLDIKGADFNSIRNASHCAVEVSVDKPQNITPTTTKTMPNLRCLSLSIQTLMNPKENKQEIVSITLSAYRNISLDSPIPENIKPDDLCTLVRPPQSTSFPLGLAALAKQKLPGRVRLFNNEKAMLSCFCAMLKVEDPDVIIGHRLQNVYLDVLAHRMHDLNIPTFSSIGRRLRRTWPEKFGRGNSNMNHFFISDICSGRLICDIANEMGQSLTPKCQSWDLSEMYQVTCEKEHKPLDIDYQNPQYQNDVNSMTMALQENITNCMISAEVSYRIQLLTLTKQLTNLAGNAWAQTLGGTRAGRNEYILLHEFSRNGFIVPDKEGNRSRAQKQRQNEENADAPVNSKKAKYQGGLVFEPEKGLHKNYVLVMDFNSLYPSIIQEFNICFTTVDRNKEDIDELPSVPPSEVDQGVLPRLLANLVDRRREVKKVMKTETDPHKRVQCDIRQQALKLTANSMYGCLGYVNSRFYAKPLAMLVTNKGREILMNTRQLAESMNLLVVYGDTDSVMIDTGCDNYADAIKIGLGFKRLVNERYRLLEIDIDNVFKKLLLHAKKKYAALTVNLDKNGNGTTVLEVKGLDMKRREFCPLSRDVSIHVLNTILSDKDPEEALQEVYDYLEDIRIKVETNNIRIDKYKINMKLSKDPKAYPGGKNMPAVQVALRMRKAGRVVKAGSVITFVITKQDEIDNAADTPALSVAERAHALNEVMIKSNNLIPDPQYYLEKQIFAPVERLLERIDSFNVVRLSEALGLDSKKYFRREGGNNNGEDINNLQPLETTITDVERFKDTVTLELSCPSCDKRFPFGGIVSSNYYRVSYNGLQCKHCEQLFTPLQLTSQIEHSIRAHISLYYAGWLQCDDSTCGIVTRQVSVFGKRCLNDGCTGVMRYKYSDKQLYNQLLYFDSLFDCEKNKKQELKPIYLPDDLDYPKEQLTESSIKALTEQNRELMETGRSVVQKYLNDCGRRYVDMTSIFDFMLN
Regarding B1, the binding result in experiment [1] is “binds”.

B2: Mrc1 (protein, UniProt P25588 1-1096)
chain: MDDALHALSSLTAKKRTTTYKKVAVPILDENDNTNGNGPNDIDNPPELTGNGFLFANATLNRVKNRLEGKKAPEQNHNNGKDRSENSLPTQLISNLYDGGEELEKSEVKDNSYSEKNVSSSFTQTQRIPVSIQQDKVFNVPIHSVNDGKPTQLIKEDGLVNETSQALKTPLTTGRPGATQRIDSSGATSQTQPIKSIEPQSQIITTSSNHSNALSPKIPIIPTELIGTSPLFQSIQNRGPDTQMDVPPQTAHDEDKTQAIGIPQATHQEQKTQIDTVAQTLQDEVPHTLKIREIQSELASEDSKREKARNVEYKKPQKPIPTKKFFSKESFLADFDDSSSNEDDDIKLENAHPKPVQNDDELHENKSVELNLTDETRINEKRVPLLSSYANNLKREIDSSKCITLDLDSDSDEYGDDDMDSIKLSKDESVLPISQLSKATILNLKARLSKQNQKLSQRPNKSKDPKVDHNVLLNTLRKASRKQILDHQKEVIETKGLKLEDMAKEKEIVENLLEQEILRNKRIRQKEKRREKLEENDFQLNAHDSGSDSGSESSGFALSGNEIADYESSGSENDNRRESDSEKEDDEIILKQKKSHHVKHIINESDSDTEVEAKPKEKADESLPKRIAINLGHYGDNIGEDTDKFQETNVLDTQNIEEVMAERNTIENEVKDDVYVNEEADEAIRRQLIDKEKLQLKQKEKEHEAKIKELKKRGVTNFFEMEAEESEDEWHGIGGADGEGSDDYDSDLEKMIDDYSKNNFNPHEIREMLAAENKEMDIKMINKILYDIKNGGFRNKRAKNSLELELSDDDEDDVLQQYRLKRRELMRKRRLEIGDDAKLVKNPKSSAFFESMVEDIIEYKNPFGAEEEYNLDITSTATDLDTQDNSINVGDNTGNNEQKPVDQKNKKVIISEDFVQKSLSFLKSNNYEDFETDKELSRIQHGNDEAIEDLYTLKQNSSIKSFTNSQTDSTTSKTVNTIIDLEKRPEDEDEVENGDTSLVGVFKHPSIIKSFASRTDINDKFKEGNKTVKILKSYKTVGSSKASITYMGKTRKLIAPKRKTEGSHRYHHDHHNKKMKMKTKTKSNKLFESGQDSFDN
On to B2, for which the binding entry in experiment [3] is given as “binds”; in experiment [2] it was “no binding (only S-phase cells without HU)”; in experiment [1] it was “binds”.

B3: Swi6 (protein, UniProt P09959 1-803)
chain: MALEEVVRYLGPHNEIPLTLTRDSETGHFLLKHFLPILQQYHDTGNINETNPDSFPTDEERNKLLAHYGIAVNTDDRGELWIELEKCLQLLNMLNLFGLFQDAFEFEEPETDQDEEDPSHSKLPENKTKSENSKDNISSKRINNLQDMSLDSDAHRELGSPLKKLKIDTSVIDAESDSTPNTARGKPNDDINKGPSGDNENNGTDDNDRTAGPIITFTHDLTSDFLSSPLKIMKALPSPVVNDNEQKMKLEAFLQRLLFPEIQEMPTSLNNDSSNRNSEGGSSNQQQQHVSFDSLLQEVNDAFPNTQLNLNIPVDEHGNTPLHWLTSIANLELVKHLVKHGSNRLYGDNMGESCLVKAVKSVNNYDSGTFEALLDYLYPCLILEDSMNRTILHHIIITSGMTGCSAAAKYYLDILMGWIVKKQNRPIQSGTNEKESKPNDKNGERKDSILENLDLKWIIANMLNAQDSNGDTCLNIAARLGNISIVDALLDYGADPFIANKSGLRPVDFGAGTSKLQNTNGGDENSKMVSKGDYDGQKNGKAKKIRSQLLKNPPETTSLINDVQNLLNSISKDYENETVQYNEKLEKLHKELNEQREELANSREQLANVKQLKDEYSLMQEQLTNLKAGIEEEEESFREESKKLGIIADESSGIDWDSSEYDADEPFKVEFLSDFLEDKLQKNYEGDISKLLEAESKEQIMEQIRNQLPAEKIQSMLPPTVLLKARINAYKRNDKHLTNVLDTISTKQSELENKFRRVLSLCLKIDENKVDNMLDGLLQAISSEDPQDIDTDEMQDFLKKHAS
As to B3, in experiment [1], the binding entry was “binds”.
